Laboratory results as given in PMC8536394.
No constants are given. Whether binding was seen depends on the method and setting. Binding seen in cells or lysates may run through a third protein. Some entries that bind do so weakly or less than the wild type.

By UniProt entry, the sequences of proteins in these tests, tags left out. Where a name states a change or a piece, a line headed by the entry shows the natural chain unless it says otherwise. Chains listed by the source or under a name are the forms on record and can include a tag or linker. Residues count along the entry.
UniProt Q96KN1: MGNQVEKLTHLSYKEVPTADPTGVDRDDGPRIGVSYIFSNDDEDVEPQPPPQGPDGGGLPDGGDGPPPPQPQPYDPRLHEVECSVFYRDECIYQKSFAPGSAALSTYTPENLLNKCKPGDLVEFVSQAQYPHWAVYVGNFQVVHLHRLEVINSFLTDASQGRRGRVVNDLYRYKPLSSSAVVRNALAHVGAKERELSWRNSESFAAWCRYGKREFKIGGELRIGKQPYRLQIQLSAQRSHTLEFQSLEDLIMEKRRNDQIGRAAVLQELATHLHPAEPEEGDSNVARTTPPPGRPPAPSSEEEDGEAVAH
UniProt Q9NR31: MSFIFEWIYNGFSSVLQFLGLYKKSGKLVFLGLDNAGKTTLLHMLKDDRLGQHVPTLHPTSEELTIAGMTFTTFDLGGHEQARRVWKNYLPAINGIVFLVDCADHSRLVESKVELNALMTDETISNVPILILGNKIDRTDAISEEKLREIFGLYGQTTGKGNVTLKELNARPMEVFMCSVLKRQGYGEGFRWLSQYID
GST-tagged human Sar1A with its N-terminal amphipathic helix removed (GST-Sar1A^Δ1–17): residues 18-198 of Q9NR31
UniProt O15260: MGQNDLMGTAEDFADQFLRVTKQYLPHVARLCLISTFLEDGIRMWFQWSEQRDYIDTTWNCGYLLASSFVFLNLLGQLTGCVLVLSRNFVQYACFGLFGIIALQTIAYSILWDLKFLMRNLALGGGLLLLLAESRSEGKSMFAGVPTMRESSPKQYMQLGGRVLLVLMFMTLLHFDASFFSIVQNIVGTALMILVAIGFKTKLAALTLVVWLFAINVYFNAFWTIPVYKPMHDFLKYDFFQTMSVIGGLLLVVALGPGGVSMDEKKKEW
UniProt Q96M27: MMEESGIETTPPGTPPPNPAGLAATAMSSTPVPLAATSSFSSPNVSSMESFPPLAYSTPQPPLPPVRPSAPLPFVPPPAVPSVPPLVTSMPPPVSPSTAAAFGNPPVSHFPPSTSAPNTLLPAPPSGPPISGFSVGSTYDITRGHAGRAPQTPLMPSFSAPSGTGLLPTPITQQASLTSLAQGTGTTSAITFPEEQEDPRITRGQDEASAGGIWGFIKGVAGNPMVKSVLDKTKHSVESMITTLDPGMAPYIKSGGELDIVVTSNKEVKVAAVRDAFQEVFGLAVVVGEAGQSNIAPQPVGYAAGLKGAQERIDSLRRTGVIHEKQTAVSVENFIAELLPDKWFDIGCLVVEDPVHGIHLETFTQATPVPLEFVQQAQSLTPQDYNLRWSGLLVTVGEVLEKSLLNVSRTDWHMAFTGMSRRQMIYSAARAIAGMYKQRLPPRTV
UniProt O43747: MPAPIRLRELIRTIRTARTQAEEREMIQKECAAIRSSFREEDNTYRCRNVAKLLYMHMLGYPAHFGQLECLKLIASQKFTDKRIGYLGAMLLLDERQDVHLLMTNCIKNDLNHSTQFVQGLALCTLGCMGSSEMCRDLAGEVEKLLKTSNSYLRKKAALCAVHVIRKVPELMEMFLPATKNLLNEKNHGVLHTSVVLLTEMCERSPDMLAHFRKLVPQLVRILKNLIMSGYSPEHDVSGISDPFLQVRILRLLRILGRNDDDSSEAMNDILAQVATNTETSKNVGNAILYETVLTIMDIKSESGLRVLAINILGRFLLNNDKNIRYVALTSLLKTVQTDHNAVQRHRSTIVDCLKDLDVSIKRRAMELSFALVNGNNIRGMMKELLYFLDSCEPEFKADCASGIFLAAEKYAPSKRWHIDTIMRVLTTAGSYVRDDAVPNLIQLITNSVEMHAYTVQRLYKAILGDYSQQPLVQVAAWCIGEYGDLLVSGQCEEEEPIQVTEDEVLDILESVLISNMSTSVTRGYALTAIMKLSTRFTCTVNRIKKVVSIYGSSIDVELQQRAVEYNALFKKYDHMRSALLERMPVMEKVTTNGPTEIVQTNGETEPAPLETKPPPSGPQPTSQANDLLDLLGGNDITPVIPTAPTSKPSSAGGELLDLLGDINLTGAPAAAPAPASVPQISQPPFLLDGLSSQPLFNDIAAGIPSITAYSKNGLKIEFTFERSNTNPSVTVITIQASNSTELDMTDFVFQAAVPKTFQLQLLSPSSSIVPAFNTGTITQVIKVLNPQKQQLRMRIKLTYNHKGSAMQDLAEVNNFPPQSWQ
UniProt Q3T1I4: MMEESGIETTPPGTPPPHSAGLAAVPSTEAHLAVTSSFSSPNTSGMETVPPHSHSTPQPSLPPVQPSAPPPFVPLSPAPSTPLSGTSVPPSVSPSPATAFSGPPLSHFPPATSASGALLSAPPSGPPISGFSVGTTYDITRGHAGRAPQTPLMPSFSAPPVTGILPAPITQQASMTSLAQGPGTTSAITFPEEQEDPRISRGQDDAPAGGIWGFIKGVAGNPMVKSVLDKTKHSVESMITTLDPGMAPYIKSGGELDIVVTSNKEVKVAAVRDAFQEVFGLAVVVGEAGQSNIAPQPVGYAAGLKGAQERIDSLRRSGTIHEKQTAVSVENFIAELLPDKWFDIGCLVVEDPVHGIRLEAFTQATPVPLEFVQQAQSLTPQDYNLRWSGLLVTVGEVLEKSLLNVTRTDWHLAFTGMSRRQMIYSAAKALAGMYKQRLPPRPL

Tests used:
[1] = target: HA-tagged FAM84B/LRATD2 (FAM84B-HA) (UniProt Q96KN1); experiment: co-IP; HEK293T cells expressing FAM84B-HA treated in 2 mM DSP cross-linker; lysates incubated with beads conjugated with HA antibodies; Western blot
[2] = target: GST-tagged human Sar1A with its N-terminal amphipathic helix removed (GST-Sar1A^Δ1–17) (human) (UniProt Q9NR31); experiment: pull-down; GST-Sar1A^Δ1–17 loaded with GMPPNP, immobilised on glutathione beads, incubated with rat liver cytosol; bound proteins eluted with EDTA; immunoblot; only the target purified
SURF4-HA = SURF4-HA (UniProt O15260); experiment: co-IP; co-immunoprecipitation with SURF4-HA in the presence of a cross-linker
[3] = target: FLAG-tagged PRRC1 (PRRC1-FLAG) (UniProt Q96M27); experiment: co-IP; M2 agarose beads incubated with lysates of HEK293T cells expressing PRRC1-FLAG; eluted with 3× FLAG peptides; Western blot

Molecule | binding [1] | binding (SURF4-HA) | also measured
Sar1A, HEK293T (from UniProt Q9NR31 1-198) | no binding |  | 
AP1γ1 (γ-subunit of the adaptor complex 1) (from UniProt O43747 1-822) | binds |  | 
PRRC1 of rat liver cytosol (from UniProt Q3T1I4 1-443) |  |  | binding [2]: no binding
NUCB1 (protein, UniProt Q02818 27-461) VPLERGAPNKEETPATESPDTGLYYHRYLQEVIDVLETDGHFREKLQAANAEDIKSGKLSRELDFVSHHVRTKLDELKRQEVSRLRMLLKAKMDAEQDPNVQVDHLNLLKQFEHLDPQNQHTFEARDLELLIQTATRDLAQYDAAHHEEFKRYEMLKEHERRRYLESLGEEQRKEAERKLEEQQRRHREHPKVNVPGSQAQLKEVWEELDGLDPNRFNPKTFFILHDINSDGVLDEQELEALFTKELEKVYDPKNEEDDMREMEEERLRMREHVMKNVDTNQDRLVTLEEFLASTQRKEFGDTGEGWETVEMHPAYTEEELRRFEEELAAREAELNAKAQRLSQETEALGRSQGRLEAQKRELQQAVLHMEQRKQQQQQQQGHKAPAAHPEGQLKFHPDTDDVPVPAPAGDQKEVDTSEKKLLERLPEVEVPQHL |  | binds | 
NUCB2 (protein, UniProt P80303 25-420) VPIDIDKTKVQNIHPVESAKIEPPDTGLYYDEYLKQVIDVLETDKHFREKLQKADIEEIKSGRLSKELDLVSHHVRTKLDELKRQEVGRLRMLIKAKLDSLQDIGMDHQALLKQFDHLNHLNPDKFESTDLDMLIKAATSDLEHYDKTRHEEFKKYEMMKEHERREYLKTLNEEKRKEEESKFEEMKKKHENHPKVNHPGSKDQLKEVWEETDGLDPNDFDPKTFFKLHDVNSDGFLDEQELEALFTKELEKVYDPKNEEDDMVEMEEERLRMREHVMNEVDTNKDRLVTLEEFLKATEKKEFLEPDSWETLDQQQFFTEEELKEYENIIALQENELKKKADELQKQKEELQRQHDQLEAQKLEYHQVIQQMEQKKLQQGIPPSGPAGELKFEPHI |  | binds | 
Sec31A (outer COPII subunit), HEK293T (protein, UniProt O94979 1-1220) MKLKEVDRTAMQAWSPAQNHPIYLATGTSAQQLDATFSTNASLEIFELDLSDPSLDMKSCATFSSSHRYHKLIWGPYKMDSKGDVSGVLIAGGENGNIILYDPSKIIAGDKEVVIAQNDKHTGPVRALDVNIFQTNLVASGANESEIYIWDLNNFATPMTPGAKTQPPEDISCIAWNRQVQHILASASPSGRATVWDLRKNEPIIKVSDHSNRMHCSGLAWHPDVATQMVLASEDDRLPVIQMWDLRFASSPLRVLENHARGILAIAWSMADPELLLSCGKDAKILCSNPNTGEVLYELPTNTQWCFDIQWCPRNPAVLSAASFDGRISVYSIMGGSTDGLRQKQVDKLSSSFGNLDPFGTGQPLPPLQIPQQTAQHSIVLPLKKPPKWIRRPVGASFSFGGKLVTFENVRMPSHQGAEQQQQQHHVFISQVVTEKEFLSRSDQLQQAVQSQGFINYCQKKIDASQTEFEKNVWSFLKVNFEDDSRGKYLELLGYRKEDLGKKIALALNKVDGANVALKDSDQVAQSDGEESPAAEEQLLGEHIKEEKEESEFLPSSGGTFNISVSGDIDGLITQALLTGNFESAVDLCLHDNRMADAIILAIAGGQELLARTQKKYFAKSQSKITRLITAVVMKNWKEIVESCDLKNWREALAAVLTYAKPDEFSALCDLLGTRLENEGDSLLQTQACLCYICAGNVEKLVACWTKAQDGSHPLSLQDLIEKVVILRKAVQLTQAMDTSTVGVLLAAKMSQYANLLAAQGSIAAALAFLPDNTNQPNIMQLRDRLCRAQGEPVAGHESPKIPYEKQQLPKGRPGPVAGHHQMPRVQTQQYYPHGENPPPPGFIMHGNVNPNAAGQLPTSPGHMHTQVPPYPQPQPYQPAQPYPFGTGGSAMYRPQQPVAPPTSNAYPNTPYISSASSYTGQSQLYAAQHQASSPTSSPATSFPPPPSSGASFQHGGPGAPPSSSAYALPPGTTGTLPAASELPASQRTGPQNGWNDPPALNRVPKKKKMPENFMPPVPITSPIMNPLGDPQSQMLQQQPSAPVPLSSQSSFPQPHLPGGQPFHGVQQPLGQTGMPPSFSKPNIEGAPGAPIGNTFQHVQSLPTKKITKKPIPDEHLILKTTFEDLIQRCLSSATDPQTKRKLDDASKRLEFLYDKLREQTLSPTITSGLHNIARSIETRNYSEGLTMHTHIVSTSNFSETSAFMPVLKVVLTQANKLGV |  |  | binding [3]: no binding
